# PubChem BioAssay AID624360 (Broad Institute, 2012)
# The shares of active, inactive and inconclusive entries below differ from those in the screen. Activity calls are given as the source filed them.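 The calls were made as follows: active = fitted curve falls past -35% activity change at a concentration under twice the top valid dose, in every test run; inconclusive = test runs disagree, some active and some inactive; inactive = all test runs inactive, including signal rising instead of falling.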
# Test: inhibitors of IL-1beta-stimulated NF-kB luciferase reporter, dose response, selectivity assay for EBV LMP1 NF-kB inhibitor project, LMP1 TES2-inducible cells, dry powder (AID 624360)
# Details: HEK293 IL-1beta-induced NF-kB luciferase reporter (LMP1 TES2-inducible cell line), 16 h; at 26 µM (top of the series) unless noted
row,SMILES,"activity change, negative = inhibition"
1,C/C(=N\NC(=S)N1CCN(C2CCCCCC2)CC1)c1ccccn1,inconclusive: -48.2% [at 19.5 µM]
2,COc1ccc(-c2csc3ncnc(NCCN4CCOCC4)c23)cc1,inconclusive: 7.65%
3,C/C(=N\NC(=S)Nc1ccc(C)cc1)c1ccccn1,inconclusive: 84.5% [at 19.5 µM]
4,C/C(=N\NC(=S)Nc1cccc(C)c1)c1ccccn1,inconclusive: -38.5% [at 19.5 µM]
5,C[C@H]1CCCCO[C@@H](CN(C)CC2CCCCC2)[C@@H](C)CN([C@@H](C)CO)C(=O)c2cc(NC(=O)C3CCCCC3)ccc2O1,inconclusive: -47.3%
6,c1ccc(Cn2c3ccccc3c3nnc(SCCN4CCCCC4)nc32)cc1,inconclusive: 0.789%
7,O=C(CCc1ccccc1)NC(c1cccs1)c1cc(Cl)c2cccnc2c1O (stereo not drawn),inconclusive: -19.8%
8,COc1ccc(NC(=O)c2ccc(OC(C)C(=O)O)cc2)cc1Cl (stereo not drawn),inconclusive: -31.3% [at 28.5 µM]
9,CCc1ccc(/C=C/C(=O)C2C(=O)c3ccccc3C2=O)cc1,inconclusive: -14%
10,COc1ccccc1NC(=S)N/N=C(\C)c1ccccn1,inconclusive: -19.4% [at 10 µM]
11,C/C(=N\NC(=S)N1CCN(c2ccccn2)CC1)c1ccccn1,inconclusive: -98.3% [at 19.5 µM]
12,COCCCNC(=O)C(C)Sc1nnc2c3cc(C)ccc3n(Cc3ccccc3F)c2n1 (stereo not drawn),inconclusive: -51.3%
13,C[C@@H]1CCCCO[C@@H](CN(C)Cc2ccccc2)[C@H](C)CN([C@H](C)CO)C(=O)c2cc(NC(=O)Nc3ccc4c(c3)OCO4)ccc2O1,inconclusive: 21.1%
14,C[C@@H]1CCCCO[C@H](CN(C)C(=O)CCC(F)(F)F)[C@H](C)CN([C@@H](C)CO)C(=O)c2cc(NC(=O)CCC(F)(F)F)ccc2O1,inconclusive: -46.4%
15,Cc1ccc(S(=O)(=O)NC(CC(C)C)C(=O)NCC(c2ccco2)N2CCCCC2)cc1 (stereo not drawn),inconclusive: -0.714%
16,C/C(=N\NC(=S)Nc1cccc(Cl)c1)c1ccccn1,inconclusive: -49.8% [at 19.5 µM]
17,C[C@@H]1CCCCO[C@H](CN(C)CC2CCCCC2)[C@H](C)CN([C@@H](C)CO)C(=O)c2cc(NC(=O)NC3CCCCC3)ccc2O1,inactive: -0.708%
18,Cc1ccnc(NC(=O)c2ccc(C(=O)c3ccccc3)cc2)c1,inconclusive: -39.3%
19,O=C(Nc1cc(C(F)(F)F)cc(C(F)(F)F)c1)Nc1cnn(-c2ccc([N+](=O)[O-])cc2)c1C(F)(F)F,inconclusive: 13.4%
20,COc1cccc(/C=N/Nc2ncnc3c2ncn3Cc2ccccc2)c1O,inconclusive: -12.1%
21,C/C(=N\NC(=S)Nc1ccccc1Cl)c1ccccn1,inconclusive: -26.1% [at 19.5 µM]
22,CC(=O)Nc1nc(C)c(-c2csc(Nc3ccc(O)cc3)n2)s1,inconclusive: 12.6% [at 19.5 µM]
23,C[C@@H]1CCCCO[C@H](CN(C)C(=O)c2ccccc2)[C@H](C)CN([C@@H](C)CO)C(=O)c2cc(NC(=O)Nc3ccc(F)cc3)ccc2O1,inconclusive: -17.5%

# Part of the list above, with tabs.
row	SMILES	activity change, negative = inhibition
3	C/C(=N\NC(=S)Nc1ccc(C)cc1)c1ccccn1	inconclusive: 84.5% [at 19.5 µM]
4	C/C(=N\NC(=S)Nc1cccc(C)c1)c1ccccn1	inconclusive: -38.5% [at 19.5 µM]
